Data from publication PMC5702341, “Identification of Antibody and Small Molecule Antagonists of Ferroportin-Hepcidin Interaction” (Frontiers in Pharmacology, 2017).

System: C326-containing linear FPN peptide (hepcidin binding domain)
Test: Thiol reactivity with linear FPN peptide by mass spectrometry
Design: species or system human

Row | SMILES | fraction of peptide reacted (100 μM compound and 100 μM peptide, 20 mM acetate buffer pH 7, 12 h) | reaction with cysteine-containing peptide (100 μM iodoacetamide, 20 mM acetate buffer pH 7, within 1 h)
1 | O=S(=O)(c1ccc(Cl)cc1)c1cnc2ccccc2n1 [Compound 1, 2-[(4-chlorophenyl)sulfonyl]quinoxaline] | 50% | 
2 | NC(=O)CI [iodoacetamide, reference compound] |  | reacted completely
